The structures appear in SMILES notation. The list is a part of this screen's results and no random one: it is rich in T/C values a quarter to a half above the control, in often repeated tests (any T/C) and in doses without a T/C. Further doses and runs are listed elsewhere. T/C gives the treated animals as a percentage of the vehicle group. Some entries give survivors of the animals treated and no T/C: the source files T/C as zero there, which appears to mark a toxic dose or a test without result, not a measured value. Some doses without a T/C left all or most animals alive at the check, yet need not have been tolerated: the source hardly ever lists a survival T/C far under the control, and the zero likely stands for such cases as well. Counts of survivors are from the toxicity check (mostly the fifth day) where no day follows; animals may have died later. Schedule codes are those of the source, read here as Q, the interval in days (D) or hours (H), X, the number of doses. Some entries were tested several times; the values are given in rising order. Some structures stand for samples that the source files as different forms (salt, stereo form or complex); doses refer to the form tested. For survival time, this PubChem deposit counts one and a half times the control or more as active, and values a quarter to a half above the control carry no call in these data; other NCI protocols may use other cut-offs. Some T/C values carry the count of animals alive at the toxicity check (mostly the fifth day); without a count, all were alive then.

The assay has as its system CD2F1 mice, L1210 leukemia ip, survival T/C. Briefly: NCI In Vivo Anticancer Drug Screen. Data for tumor model L1210 Leukemia (intraperitoneal) in CD2F1 (CDF1) mice. As to conditions: higher T/C = longer survival. Summed up: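 Implant tumor; dose compound or vehicle; measure endpoint in both groups; report treated divided by control.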
Where [1] appears, read: T/C endpoint: mean survival time, dose: 400.0 mg/kg/injection, schedule: Q01DX001 (ip), vehicle: saline with Tween-80.
Where [2] appears, read: T/C endpoint: mean survival time, dose: 200.0 mg/kg/injection, schedule: Q04DX003 (ip), vehicle: saline.
The mark [3] stands for this setting: T/C endpoint: mean survival time, dose: 400.0 mg/kg/injection, schedule: Q04DX003 (ip), vehicle: saline with Tween-80.
[4] abbreviates: T/C endpoint: mean survival time, dose: 400.0 mg/kg/injection, schedule: Q04DX003 (ip), vehicle: saline.
The mark [5] stands for this setting: T/C endpoint: mean survival time, dose: 100.0 mg/kg/injection, schedule: Q04DX002 (ip), vehicle: saline with Tween-80.
Setting [6] is: T/C endpoint: mean survival time, dose: 200.0 mg/kg/injection, schedule: Q04DX002 (ip), vehicle: saline with Tween-80.
The mark [7] stands for this setting: T/C endpoint: mean survival time, dose: 400.0 mg/kg/injection, schedule: Q04DX002 (ip), vehicle: saline with Tween-80.
Where [8] appears, read: T/C endpoint: mean survival time, dose: 200.0 mg/kg/injection, schedule: Q01DX009 (ip), vehicle: saline with Tween-80.
Setting [9] is: T/C endpoint: mean survival time, dose: 100.0 mg/kg/injection, schedule: Q01DX009 (ip), vehicle: saline with Tween-80.
The mark [10] stands for this setting: T/C endpoint: mean survival time, dose: 400.0 mg/kg/injection, schedule: Q01DX009 (ip), vehicle: saline with Tween-80.

As for `c1ccc(CCN2CCCCC2)nc1`, the survivor count by setting is: (T/C endpoint: mean survival time, dose: 12.5 mg/kg/injection, schedule: Q04DX003 (ip), vehicle: saline with Tween-80) 0 of 6; (T/C endpoint: mean survival time, dose: 25.0 mg/kg/injection, schedule: Q04DX003 (ip), vehicle: saline) 5 of 6; (T/C endpoint: mean survival time, dose: 50.0 mg/kg/injection, schedule: Q04DX003 (ip), vehicle: saline) 0 of 6; (T/C endpoint: mean survival time, dose: 100.0 mg/kg/injection, schedule: Q04DX003 (ip), vehicle: saline) 0 of 6.
Take `Cc1cccc(N=Cc2ccccc2O)c1`: under setting [1], the survivor count was 6 of 6.
`COC12C(COC(=O)NCCO)C3=C(C(=O)C(C)=C(N)C3=O)N1CC1NC12` (centres undefined): the T/C (T/C endpoint: mean survival time, dose: 12.5 mg/kg/injection, schedule: Q01DX009 (ip), vehicle: Klucel (hydroxypropylcellulose) (HPC)) is 127 % of control [5 of 6 alive]; the T/C (T/C endpoint: mean survival time, dose: 25.0 mg/kg/injection, schedule: Q01DX009 (ip), vehicle: Klucel (hydroxypropylcellulose) (HPC)) was 128 and 130 % of control; the T/C (T/C endpoint: mean survival time, dose: 49.0 mg/kg/injection, schedule: Q01DX001 (ip), vehicle: carboxymethylcellulose (CMC)) was 127 % of control; the T/C (T/C endpoint: mean survival time, dose: 74.0 mg/kg/injection, schedule: Q01DX001 (ip), vehicle: carboxymethylcellulose (CMC)) was 129 and 146 % of control; the T/C (T/C endpoint: mean survival time, dose: 119.0 mg/kg/injection, schedule: Q01DX001 (ip), vehicle: carboxymethylcellulose (CMC)) was 135 % of control; the T/C (T/C endpoint: mean survival time, dose: 148.0 mg/kg/injection, schedule: Q01DX001 (ip), vehicle: carboxymethylcellulose (CMC)) is 129 [4 of 5 alive] and 148 % of control.
`Cc1ccc(N)c(Br)c1`: the survivor count is reported as 0 of 3 under setting [2], 2 of 6 under setting [3] and 0 of 3 under setting [4].
For `[Cl][Hg][c]1ccc2ccccc2c1`, the survivor count under setting [5] is given as 0 of 3, the survivor count under setting [6] is recorded as 1 of 3 and the survivor count under setting [7] is reported as 0 of 3.
Take `NC(N)=N/N=C(/c1ccccc1)c1ccc(F)cc1`: the survivor count is on record as 4 of 6 (T/C endpoint: mean survival time, dose: 100.0 mg/kg/injection, schedule: Q01DX009 (ip), vehicle: saline); 0 of 6 (T/C endpoint: mean survival time, dose: 200.0 mg/kg/injection, schedule: Q01DX009 (ip), vehicle: saline); 0 of 6 (T/C endpoint: mean survival time, dose: 400.0 mg/kg/injection, schedule: Q01DX009 (ip), vehicle: saline).
For the molecule `Cc1c(N=Nc2cc[n+]([O-])cc2)ccc(N(C)C)c1C`, the survivor count under setting [3] is 0 of 6.
For `COc1cccc(C(=O)NC[n+]2ccccc2)c1`, the survivor count under setting [2] is on record as 0 of 6 and the survivor count under setting [4] is given as 0 of 6.
With `NC(=S)N/N=C/c1ccc(C(F)(F)F)cn1`, the T/C runs as follows: (T/C endpoint: mean survival time, dose: 30.0 mg/kg/injection, schedule: Q01DX009 (ip), vehicle: saline with Tween-80) 137 % of control; (T/C endpoint: mean survival time, dose: 50.0 mg/kg/injection, schedule: Q04DX002 (ip), vehicle: saline with Tween-80) 143 % of control; under setting [5], 149 % of control. The survivor count is reported as 1 of 6 (T/C endpoint: mean survival time, dose: 45.0 mg/kg/injection, schedule: Q01DX009 (ip), vehicle: Klucel (hydroxypropylcellulose) (HPC)); 0 of 6 (T/C endpoint: mean survival time, dose: 67.5 mg/kg/injection, schedule: Q01DX009 (ip), vehicle: Klucel (hydroxypropylcellulose) (HPC)); 3 of 10 (T/C endpoint: mean survival time, dose: 67.5 mg/kg/injection, schedule: Q01DX009 (ip), vehicle: saline with Tween-80); 1 of 3 under setting [5]; 0 of 3 under setting [6]; 0 of 3 under setting [7].
On to `CC(=O)Nc1ccc(S(=O)(=O)/N=C2\C=CC(=O)c3ccccc32)cc1`, for which the survivor count under setting [8] is recorded as 4 of 6 and the survivor count under setting [1] was 0 of 6.
In the case of `CCCCCCC(C)c1cc(C)c(O)c(CN(C)C)c1` (centres undefined), the survivor count under setting [4] is 0 of 6.
Turning to `O=C1CCN(Cc2ccccc2)C(=O)N1`, under setting [3], the survivor count was 0 of 6.
On to `CC1(C)CC(OP(=O)(OC2CC(C)(C)N(O)C(C)(C)C2)N2CC2)CC(C)(C)N1O`, for which the T/C was 130 % of control (T/C endpoint: mean survival time, dose: 50.0 mg/kg/injection, schedule: Q01DX009 (ip), vehicle: water) and 128 % of control (T/C endpoint: mean survival time, dose: 100.0 mg/kg/injection, schedule: Q01DX009 (ip), vehicle: water). Under “T/C endpoint: mean survival time, dose: 200.0 mg/kg/injection, schedule: Q01DX009 (ip), vehicle: water”, the survivor count is listed as 4 of 6.
With `COc1cc(C=O)ccc1OC(=O)Nc1cc([N+](=O)[O-])ccc1Cl`, the T/C by setting is: under setting [9], 105, 106, 109, 113 % of control; under setting [8], 103, 109, 112 % of control. Further, the survivor count under setting [8] is 2 of 3; the survivor count under setting [10] is 0 of 3 and 1 of 6.
As to `CCCOC(=O)COc1ccc(F)cc1F`, the survivor count under setting [6] was 3 of 3.
For `COCC1=Nc2c(ncnc2SCc2ccccc2)NN1`, the survivor count is listed as 1 of 6 (T/C endpoint: mean survival time, dose: 200.0 mg/kg/injection, schedule: Q01DX001 (ip), vehicle: other) and 0 of 6 (T/C endpoint: mean survival time, dose: 400.0 mg/kg/injection, schedule: Q01DX001 (ip), vehicle: other).
As to `CCOC(=O)C(C(=O)OCC)=C1CCC(=O)O1`, the survivor count under setting [7] is 2 of 3.
On to `COC(C(=O)C(O)C(C)O)C1Cc2cc3cc(OC4CC(OC5CC(O)C(O)C(C)O5)C(O)C(C)O4)c(C)c(O)c3c(O)c2C(=O)C1OC1CC(OC2CC(O)C(OC3CC(C)(O)C(O)C(C)O3)C(C)O2)C(O)C(C)O1` (centres undefined), for which, for the setting “T/C endpoint: mean survival time, dose: 2.0 mg/kg/injection, schedule: Q01DX009 (ip), vehicle: saline”, the survivor count is reported as 3 of 6.
Consider `COc1ccc([I+]c2cccc(Cl)c2)cc1Cl`, for which the survivor count runs as follows: (T/C endpoint: median survival time, dose: 50.0 mg/kg/injection, schedule: Q01DX009 (ip), vehicle: saline with Tween-80) 1 of 6; (T/C endpoint: median survival time, dose: 100.0 mg/kg/injection, schedule: Q01DX009 (ip), vehicle: saline with Tween-80) 0 of 6.
For the molecule `O=C(Nc1ccc2c3c(ccc(NC(=O)c4ccccc4)c13)C=C2)c1ccccc1`, the survivor count under setting [8] is on record as 6 of 6.
Regarding `Clc1nnc(-c2ccccc2)c(-c2ccccc2)n1`, the survivor count runs as follows: under setting [2], 6 of 6; under setting [4], 1 of 6.
With `OCCN(CCO)c1ccc(O)cc1`, the survivor count runs as follows: (T/C endpoint: mean survival time, dose: 75.0 mg/kg/injection, schedule: Q01DX001 (ip), vehicle: saline) 2 of 6; (T/C endpoint: mean survival time, dose: 80.0 mg/kg/injection, schedule: Q01DX001 (ip), vehicle: saline) 3 of 6; (T/C endpoint: mean survival time, dose: 150.0 mg/kg/injection, schedule: Q01DX001 (ip), vehicle: saline) 2 of 6; (T/C endpoint: mean survival time, dose: 300.0 mg/kg/injection, schedule: Q01DX001 (ip), vehicle: saline) 0 of 6.
For the molecule `OC1CCCC2CCCNC12` (centres undefined), the survivor count (T/C endpoint: mean survival time, dose: 100.0 mg/kg/injection, schedule: Q01DX009 (ip), vehicle: Klucel (hydroxypropylcellulose) (HPC)) is recorded as 0 of 6; the survivor count under setting [9] is given as 0 of 6; the survivor count (T/C endpoint: mean survival time, dose: 200.0 mg/kg/injection, schedule: Q01DX009 (ip), vehicle: Klucel (hydroxypropylcellulose) (HPC)) is on record as 0 of 6.
On to `Clc1cc(CBr)c2ccccc2n1`, for which the survivor count reads like this: under setting [6], 1 of 3; under setting [7], 0 of 3.
For the molecule `CC(=O)Oc1ccc(Cl)cc1`, under setting [10], the survivor count is given as 0 of 6.
Take `CC[PH+](CC)CC[S-].CC[PH+](CC)CC[S-].[Au+].[Au+]`: the survivor count by setting is: (T/C endpoint: mean survival time, dose: 40.0 mg/kg/injection, schedule: Q01DX009 (ip), vehicle: Klucel (hydroxypropylcellulose) (HPC)) 3 of 6; (T/C endpoint: mean survival time, dose: 80.0 mg/kg/injection, schedule: Q01DX009 (ip), vehicle: Klucel (hydroxypropylcellulose) (HPC)) 0 of 6.
For `CCOC(OCC)c1cc[n+](CCc2ccc(OC)c(OC)c2)cc1`, the survivor count runs as follows: under setting [2], 3 of 6; under setting [4], 0 of 6.
For the molecule `c1ccc(-c2nn[nH]n2)nc1`, the survivor count (T/C endpoint: mean survival time, dose: 400.0 mg/kg/injection, schedule: Q01DX001 (ip), vehicle: saline) was 3 of 3.
As to `Cc1cc(C)c(C(=O)CCCC(=O)O)c(C)c1`, under setting [3], the survivor count is 6 of 6.

Source of the values: PubChem BioAssay AID256 (DTP/NCI, 2004).
